From the supplement of paper PMC12889115
This is one part of the list. Values are raw readings; no control value is given beside them.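 Primary screen: polymyxin B was added at a level permeabilizing Salmonella outer membranes while sparing inner membranes. DMSO wells, both with and without polymyxin B, established maximum growth. Plate-to-plate variation meant each plate was ranked on its own, and the lowest-OD600 compounds were selected as hits.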

Test system: Salmonella enterica serovar Typhimurium SL1344
Test: bacterial growth OD600 after 18 h with compound and polymyxin B; higher = more bacterial growth (less inhibition)
Details: 50 µM, Mueller-Hinton broth

SMILES	bacterial growth OD600 (polymyxin B 0.75 µg/mL)	bacterial growth OD600 (polymyxin B 1 µg/mL)
O=C(CCN1Cc2ccccc2OC(c2ccccc2)C1)NCC1(N2CCOCC2)CCCC1 (centres undefined)	0.888	
CCN(CCN(C)C)C(=O)C1CC(=O)c2sc(NC(=O)c3cccc(F)c3)nc2C1 (centres undefined)	0.777	
Cc1cccc(-c2cnc(-c3ccncc3)nc2C2CCN(Cc3ccsc3)CC2)c1	0.728	
COc1cccc(C(=O)NCC2CCCN(CC#Cc3ccccc3)C2)c1OC (centres undefined)		0.766
O=C(Cc1ccccc1)N1CCC(C2(c3ccccn3)NC(=O)N(CCc3cccs3)C2=O)CC1 (centres undefined)	0.954	
CCN(CC1CCCN(CCc2cccc(F)c2)C1)C(=O)Cc1ccc(OC)cc1 (centres undefined)		0.703
COc1cc(NC(=O)CCC2CCCN(C(=O)Cn3ccc(C)n3)C2)cc(OC)c1 (centres undefined)		0.812
CCOc1ccc2nc(N3CCCN(Cc4ccc(NC(C)=O)cc4)CC3)nc(C)c2c1	0.569	
Cc1ccc(C(=O)N2CCCC(CO)(Cc3ccccc3)C2)cc1N1CCNC1=O (centres undefined)		0.873
O=C(CC1CCCC1)Nc1cccc(N2CCC(NCc3cnn(Cc4ccccc4)c3)CC2)c1	0.805	
CCOC(=O)C1CCN(CC2(O)CCCN(Cc3ccccc3F)C2=O)CC1 (centres undefined)		0.924
O=C1CCC(CCC(=O)N2CCCC2c2ccc(F)cc2)(Cc2ccccc2)N1 (centres undefined)	1.04	
CSc1ccc(CC2(CCC(=O)NCc3nc(-c4ccccc4)cs3)CCC(=O)N2)cc1 (centres undefined)	0.668	
CC1CCN(C(=O)CC2C(=O)NCCN2Cc2cccc(C(F)(F)F)c2)CC1 (centres undefined)		0.86
COc1ccc(CN2CCOc3ccc(C(O)Cc4ccccc4)cc3C2)c(OC)c1 (centres undefined)	0.551	
O=C(NCCc1cscn1)c1cc(Cn2ccc3ccccc32)[nH]n1	0.803	
Cc1cc(CNC(=O)c2cnn(-c3ncc4c(n3)-c3ccccc3CC4)c2C)on1	1.03	
COC(=O)CCCNC(=O)c1ccc2nc(Cc3ccccc3F)oc2c1	0.898	
COCCNC(=O)c1ccc(OC)cc1OC1CCN(Cc2ccc(SC)cc2)CC1		1.21
CN(C)C(=O)CN1CCN(Cc2nc(-c3ccc(Cl)cc3)no2)CC1		0.866
Cc1cc(N2CCN(C(=O)Cn3nnnc3CN3CCC(C)CC3)CC2)cc(C)n1	0.821	
CO[C@H]1[C@H](NC(=O)COc2ccccc2)c2ccccc2C12CCN(C(=O)C1(C)CC1)CC2	0.811	
O=C(N1CCCC(Nc2ccc(F)cc2)C1)C12CC3CC(CC(C3)C1)C2 (centres undefined)		0.035
Cc1ccccc1CCC1CCCN(C(=O)CC2CC2)C1 (centres undefined)	0.001	
Cc1ncsc1CCC(=O)NC1CCCc2c1cnn2-c1ccccc1F (centres undefined)		0.793
CC(C)(CN1CCOCC1)CN1CC[C@@H](N2CCCCCC2)[C@H](O)C1	0.796	
Cc1nc(N2CCC(C(=O)NC34CC5CC(CC(C5)C3)C4)CC2)nc2cc(S(C)(=O)=O)ccc12	0.003	
O=C(c1coc(COc2ccc(F)cc2)n1)N1CCN(CC2CC2)CC1		1
c1csc(CN(CCN2CCCCC2)CC2CCCN(C3CCCC3)C2)n1 (centres undefined)	0.784	

Of the compounds above, two contain a thiophene ring, fused or not.
SMILES	bacterial growth OD600 (polymyxin B 0.75 µg/mL)	bacterial growth OD600 (polymyxin B 1 µg/mL)
Cc1cccc(-c2cnc(-c3ccncc3)nc2C2CCN(Cc3ccsc3)CC2)c1	0.728	
O=C(Cc1ccccc1)N1CCC(C2(c3ccccn3)NC(=O)N(CCc3cccs3)C2=O)CC1 (centres undefined)	0.954	
